Data from PubChem BioAssay AID1794845 (National Center for Advancing Translational Sciences (NCATS), 2023).
Fewer than 10 of roughly 6,900 compounds were called active. The call rests on the fitted dose curve; in most records, active means well fitted curve in the direction sought with a large enough effect; inconclusive means small, poorly fitted or top-dose-only effect, or another doubt; inactive means no such curve, though single readings can be large or run the other way. The list shows a part of the results.

By UniProt entry, the sequences of proteins in these tests, tags left out. Where a name states a change or a piece, a line headed by the entry shows the natural chain unless it says otherwise.
UniProt C7C422: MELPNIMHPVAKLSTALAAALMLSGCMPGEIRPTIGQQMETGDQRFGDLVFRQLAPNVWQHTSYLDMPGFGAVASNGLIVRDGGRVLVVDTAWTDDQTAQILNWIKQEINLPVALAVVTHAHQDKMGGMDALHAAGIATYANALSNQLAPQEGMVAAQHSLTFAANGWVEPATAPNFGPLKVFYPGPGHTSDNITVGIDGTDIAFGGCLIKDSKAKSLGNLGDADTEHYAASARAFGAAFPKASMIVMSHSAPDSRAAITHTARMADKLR

molecular target: Metallo-beta-lactamase type 2 (Klebsiella pneumoniae) (UniProt C7C422); test: qHTS to identify inhibitors of the New Delhi Metallo-beta-lactamase (NDM): primary screen against the NCATS Gemini Collection; conditions: NDM-1 enzyme, meropenem hydrolysis, absorbance 300 nm; at 38.4 µM (top of the series) unless noted; further: % of control where 0% means no effect
How it was run: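 Meropenem hydrolysis (50 uM final) by 2 nM NDM-1 read as 300 nm absorbance after 30 min, following >30 min compound–enzyme preincubation in HEPES pH 7.0 with 1 uM ZnSO4 and 0.01% Tween20.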

Activity % (negative = inhibition), inactive:
Cc1ccccc1N1Cc2c(NC3CCCCCC3)ncnc2N(C)CC1=O 4.82%
COc1cccc(N2C(=O)NC(=NC3CCCC3)C23CCN(Cc2ccccc2)C3)c1 (centres undefined) -0.863%
CCC(C(=O)N1CCC2(CCC(=O)N(Cc3ccccn3)C2)CC1)n1cccn1 (centres undefined) 1.86%
O=S(=O)(NC[C@@H]1CCNC[C@H]1O)c1ccc(OC(F)(F)F)cc1 6.51%
Cc1nc(CCNC(=O)[C@H]2CCC[C@H](O)C2)nc2c1CCC2 0.624%
O=C1CC(c2ccccc2)N(C(=O)CNC(=O)c2n[nH]c3ccccc23)CCCCCCN1 (centres undefined) -1.24%
Cc1nonc1OCCn1ccnc1-c1cn(C2CCNCC2)nn1 3.42%
CCn1ccn2c(-c3ccccc3)nc(C)c2c1=O 10.1%
CN(C)C(=O)N1CCCn2nc(CNC(=O)C(=O)c3ccco3)cc2C1 7.71%
C=CCN1CCN(C(=O)[C@@]23CCCC[C@H]2N(CCC(C)C)C(=O)CC3)CC1 -1.97%
Cc1ccc(-c2noc([C@@H]3Cc4nc[nH]c4CN3Cc3cccs3)n2)cc1 29.3% [at 57.5 µM]
O=C(CCCc1ccccc1)N1CCCCCC1c1nc(C2CC2)no1 (centres undefined) -5.5%
Cn1cncc1CNC(=O)c1nc(-c2cccc(N3CCOCC3)c2)cc2c1ccn2C 19.7% [at 57.5 µM]
O=C(N[C@@H]1CN(Cc2c[nH]c3ccccc23)C[C@H]1CO)c1ccccc1 0.0707%
CC(C)c1cc(CN2CCC(N3CCC(C(=O)NCc4ccccn4)CC3)CC2)[nH]n1 -1.33%
Cc1ccc(CN2CC(Oc3cccc(C(=O)N4CCOCC4)c3)C2)s1 -2.35%
Cc1cccc(-c2ncc(CN(CCC(N)=O)Cc3ccccc3)cn2)c1 -0.301%
COc1ccc(OCC2CN(CC3CC3)[S+](=O)([O-])c3cnccc3O2)cc1 (centres undefined) 2.03% [at 16.1 µM]
CC1CCN(CCNC(=O)c2cc3cn(C(C)C)cc3s2)CC1 43.3%
CN1CC(C(=O)NCc2cccs2)NC1=O (centres undefined) -3.67% [at 57.5 µM]
Cc1ccc([S+](=O)([O-])N2CC3(Cc4ccccc4N([S+](C)(=O)[O-])C3)C2)cc1 5%
COc1ccc(C(=O)N2CCCC2c2nc(CCOc3cccc(C)c3)no2)cn1 (centres undefined) -1.73%
COc1ccc(CN2CCN(c3nc4ccccc4o3)CC2CCO)c(F)c1 (centres undefined) 6.59%
O=C(COc1ccc(F)cc1)N1CCCN(c2cc(-c3ccc(Br)cc3)[nH]n2)CC1 1.52%
Cc1ccc(CN2CCC3(CC2)CCN(Cc2ccco2)CC3CO)s1 (centres undefined) 7.76%
O=C1COc2ccc(-c3cccc(O)c3)nc2CN1Cc1ccc(C(F)(F)F)cc1 4.39% [at 57.5 µM]
CCOc1ccc(C(=O)N2CCC(n3cc(-c4nc(CC)no4)nn3)C2)cc1 (centres undefined) 9.07%
Cc1cc(Cl)ccc1OCC(=O)N1CC(CO)C2(CCNCC2)C1 (centres undefined) 1.76%
O=C(NCC1CCOCC1)Nc1c(F)cccc1F -3.66%
Cn1ccc(C(=O)N2CC3ON=C(C(=O)NCCc4ccc(Cl)cc4)C3C2)n1 (centres undefined) -0.156%
Cn1cc(-c2cc(=O)c3ccnc(NC4CCOCC4)c3o2)cn1 21.4% [at 57.5 µM]
CC1(C(=O)N2CCCC(CCc3ccc(F)c(F)c3)C2)CC1 (centres undefined) -2.26%
O=C(CCc1nc2ccc(Cl)cc2[nH]1)N1CCc2c(nc3cc(-c4ccccc4)[nH]n3c2=O)C1 55.4%
O=C(NCc1ccco1)C1CCc2nc(N3CCN(C(=O)C4CCC4)CC3)sc2C1 (centres undefined) -0.684%
O=C1CCN(Cc2c[nH]c3ccccc23)CCCC(C(=O)NCc2ccccc2)CCN1 (centres undefined) 10.4%
Cc1nc(N2CCC(C(=O)NC3CCC(C)CC3)CC2)cc(C(F)(F)F)n1 (centres undefined) 19.7%
N#Cc1cccc(C(=O)NCc2nnc3ccc(-c4ccc(F)cc4)nn23)c1 2.12%
CC(C)CCCC1CN(C(=O)c2c(O)cccc2O)CCO1 (centres undefined) 7.14%
CC(C)(C)CC(=O)N1CCC2(CC1)N(c1ccccc1)C(=O)CS2(=O)=O -0.685%
COC(=O)C1=C(C)N=C2SC=C(CC(=O)NCCCN3CCCC3=O)N2C1c1ccccc1 (centres undefined) 1.2%
CCn1ccc(C(=O)N2CC3CC(C2)[C@H]2CCCC(=O)N2C3)n1 (some centres undefined) -6.47%
Cc1ccccc1Cn1nc2n(c1=O)CCCCC2 -2.25%
O=C(NCc1cccc(C(F)(F)F)c1)C1(CCO)CC12CCN(c1ncccn1)CC2 (centres undefined) -9.97%
O=S(=O)(C1CC1)N1CCn2c(nnc2-c2cncc(Br)c2)C1 0.116%
CC(=O)N1CCN(C(=O)c2ccc3oc(-c4ccccn4)nc3c2)CC1 39.4%
O=C1CCCCC(CNC(=O)c2cccc(F)c2)N1 (centres undefined) -10.6%
CCCOc1ccccc1C(C)Nc1nc(-c2cccnc2)nc2c1CNC2 (centres undefined) -5.05%
O=C(NC1CCCCC1)O[C@@H]1CO[C@H]2[C@@H]1OC[C@@H]2NS(=O)(=O)c1ccc(Cl)cc1 -2.4%
Cc1nocc1C(=O)N1C[C@@H](CO)[C@H](c2ccccn2)C1 29.9%
COCCN(C)C[C@H]1C[C@@H](CO)CN(C(=O)c2ccc(C)c(Cl)c2)C1 2.42%
O=C(c1cnc2n1CCN(CCc1ccccc1)CC2)N1CCC(c2ccccc2)CC1 -10.2% [at 57.5 µM]
COc1ccc(S(=O)(=O)N[C@H]2C[C@H]3C(=O)NC[C@@H](CCC(=O)NCc4ccccc4)N3C2)cc1 13.4%
O=C(c1ccc(=O)[nH]n1)N1CCc2ncnc(N3CCOCC3)c2CC1 5.99%
O=C1NCCCCCCN(C(=O)c2cc(C3CC3)[nH]n2)[C@H]2CCCC[C@@H]12 10.4%
COCC(c1ccccn1)N(C)Cc1cn(-c2ccccc2)nn1 (centres undefined) -3.43%
O=C(NCc1ccc(Cl)cc1)c1cc2n(n1)CC(c1ccc3c(c1)OCO3)OC2 (centres undefined) -1.91%
CC(C)c1ccc(-n2cc(CN3CCCC(O)(CN(C)C)C3)cn2)cc1 (centres undefined) -1.42%
CN1CCN([C@H]2CCN(C(=O)COCc3ccccc3)C[C@H]2CCCO)CC1 1.92%
Cc1nc(CN2Cc3nc(OCc4ccc(F)cc4)ccc3OCC2=O)cs1 14.4% [at 57.5 µM]
Cc1ccccc1C(=O)N1CCC(C(=O)N2CCC(c3nc4ncccc4[nH]3)CC2)C1 (centres undefined) 3.09%
Cc1cnc(C2CCOCC2)n1C1CCCN(S(=O)(=O)c2ccccc2)C1 (centres undefined) -2.37%
CN(C)c1ccc2ncc(Nc3cc(F)cc(N4CCOCC4)c3)n2n1 14.6% [at 57.5 µM]
CCCn1cc(S(=O)(=O)N[C@H](CC)C2CC(O)C2)cn1 (some centres undefined) 8.44%
CCc1nc(C)sc1C(=O)N1C[C@@H](C(=O)O)[C@H](c2cccc(OC)c2)C1 -4.45%
CN1C(=O)CC[C@]2(C(=O)N3CCCCC3)CCCC[C@@H]12 2.55%
C=CCN1CCN(C(=O)[C@@H]2Cc3c[nH]c4cccc(c34)[C@H](CC(C)C)N2)CC1 5.03% [at 57.5 µM]
COc1cncc([C@@H](NC(=O)Cc2ccsc2)C2CC(O)C2)c1 (some centres undefined) -3.61%
Cc1noc2c(NCCc3ccccn3)cc(-c3ccccn3)nc12 20.8% [at 57.5 µM]
O=C(O)c1cc2c(s1)CN(C1CCCC1)C2 5.66%
Cc1ccccc1C(=O)N[C@H]1[C@H](O)[C@H](O)C[C@@H]1c1ccc(N2CCOCC2)nc1 18% [at 57.5 µM]
NS(=O)(=O)c1ccc(C(=O)NC(Cc2ccncc2)C2CC(O)C2)cc1 (centres undefined) -0.861%
COc1cc(NC(=O)CCC2CCCN(Cc3nc(C(C)C)cs3)C2)cc(OC)c1 (centres undefined) -0.0953%
COc1ccc(-c2n[nH]c3c2CC(=O)N(c2ccccc2)C3)cn1 31% [at 57.5 µM]
C[S+](=O)([O-])N1Cc2ccccc2CC2(CCCN(Cc3ccccn3)C2)C1 (centres undefined) 4.7%
C[C@H]1[C@@H]2[C@@H](O)C([C@H](C)C(=O)NC3CCCCC3)CC[C@@]2(C)CC[C@@H]1NC(=O)C1CCCCC1 (some centres undefined) 1.3%
CN(C)S(=O)(=O)N1CCc2nn(C)c(=O)n2CC1 10.1%
Cc1nc(C)c(C(=O)N2CCCC(COc3ccccc3C(=O)N3CCCC3)C2)s1 (centres undefined) -0.974%
COc1ccc(CN(C)C2CCCN(CCc3ccccc3)C2)c(OC)c1OC (centres undefined) -2.17%
Cn1c(CNC(=O)CC2CCOC3(CCN(S(C)(=O)=O)CC3)C2)nc2ccccc21 (centres undefined) -0.752%
O=C1CC2(CCN(C(=O)c3ccccn3)C2)Nc2ccccc2N1 (centres undefined) -2.18%
CCNC(=O)[C@@H]1C[C@H](NC(=O)c2ccc(=O)n(C)c2)CN1Cc1ccoc1 4.43%
CCn1c(=O)c2ccnn2c2ccc(C(=O)NCc3ccc(N4CCOCC4)cc3)cc21 7.99%
COc1ccccc1NC(=O)N1C[C@@H]2C[C@H](C1)c1c(/C=C/c3ccc(Cl)cc3)ccc(=O)n1C2 6.97%
COc1cccc(N2C(=O)NC(=NC3CCCCC3)C23CCCN(Cc2ccsc2)C3)c1 (centres undefined) -1.22%

Four records picked at random from the list so far, as already listed:
Activity % (negative = inhibition), inactive:
Cc1nocc1C(=O)N1C[C@@H](CO)[C@H](c2ccccn2)C1 29.9%
Cc1cnc(C2CCOCC2)n1C1CCCN(S(=O)(=O)c2ccccc2)C1 (centres undefined) -2.37%
CCCn1cc(S(=O)(=O)N[C@H](CC)C2CC(O)C2)cn1 (some centres undefined) 8.44%
Cc1ccc(CN2CCC3(CC2)CCN(Cc2ccco2)CC3CO)s1 (centres undefined) 7.76%
